Taken from: PubChem BioAssay AID602196 (INSERM, 2012)

- Purpose: 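Knock-downs that protect lung cancer cells from cisplatin or sensitise them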
- System: human A549 lung cancer cells
- Reagents: siRNA pair against human genes
- Time to read-out: 48 h transfection before cisplatin; time from cisplatin to read-out not stated
- Treatment: cisplatin at a dose killing half of control-siRNA cells; exact dose and duration not given
- Detection: 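Shift in cisplatin death relative to control siRNA, from -50 (all cells die) to +50 (no cells die); siRNAs harmful on their own scored 0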
- Reading the numbers: two-siRNA summed score (-2 to +2): higher = both siRNAs protect from cisplatin killing; -2 means both sensitise; mean protection from cisplatin (shift in death) and protection from cisplatin (shift in death), siRNA C and protection from cisplatin (shift in death), siRNA D: higher = protection from cisplatin killing
- Hit rule: 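siRNAs harmful alone (LDH or WST-1) get 0; others get +1 for less and -1 for more cisplatin killing; genes are active when the two siRNAs give the same sign, summing to ±2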
- Meaning of the calls: active = both siRNAs shift cisplatin killing the same way; inactive = no consistent shift, or siRNA harmful alone
This is a random part of about 23,000 reagents tested. 455 of them (2%) count as active. 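Active includes both protection and sensitisation; some change values fall well beyond the stated -50 to +50 range.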 No sequences are given here. Not stated in the record: the amount of reagent.

| target gene | two-siRNA summed score (-2 to +2) | mean protection from cisplatin (shift in death) (%) | protection from cisplatin (shift in death), siRNA C (%) | protection from cisplatin (shift in death), siRNA D (%) | Outcome |
| --- | --- | --- | --- | --- | --- |
| DND1 | 0 | 3 | 4.2 | 1.8 | inactive |
| LOC440765 | 0 | 5.3 | 3.3 | 7.2 | inactive |
| LINC02112 | 0 | 0.6 | -1.5 | 2.8 | inactive |
| TESK2 | 1 | -2.3 | 8 | -12.7 | inactive |
| CHFR | 0 | 7.3 | 19.2 | -4.5 | inactive |
| LOC442124 | 1 | 29 | 27.5 | 30.5 | inactive |
| DNTTIP2 | 0 | 2.1 | -4.6 | 8.8 | inactive |
| MAK | 0 | 3.8 | 5.3 | 2.4 | inactive |
| TXNRD1 | 0 | 8.7 | 5.6 | 11.9 | inactive |
| LOC391538 | 0 | 17.2 | 29.5 | 4.9 | inactive |
| ECE1 | 0 | -5.5 | 0.9 | -11.9 | inactive |
| LOC440057 | 0 | -0.2 | 1.1 | -1.6 | inactive |
| MAS1L | 0 | -2.8 | -9.7 | 4 | inactive |
| AGBL2 | 0 | 22.6 | 26.3 | 18.8 | inactive |
| DHFR2 | -1 | -1.6 | 10.7 | -13.9 | inactive |
| SPG21 | 0 | 3.2 | 10.9 | -4.4 | inactive |
| NPL | 0 | 0.3 | -1.9 | 2.5 | inactive |
| TNFRSF17 | 1 | 9.6 | -6.6 | 25.7 | inactive |
| LOC440842 | 1 | 16.2 | 18.7 | 13.6 | inactive |
| UBE2D3 | 1 | 16.3 | 12.8 | 19.7 | inactive |
| CDK5R1 | 0 | 1.9 | -8 | 11.8 | inactive |
| MMP23B | 0 | 0.4 | 7.5 | -6.7 | inactive |
| FAM185A | 0 | 5.1 | 5.5 | 4.7 | inactive |
| LOC338918 | 0 | 3.1 | -0.9 | 7.1 | inactive |
| UBE3D | 0 | 9.8 | 5.6 | 14.1 | inactive |
| TMEM127 | 0 | 9 | 2.8 | 15.2 | inactive |
| KDELR1 | 0 | -7.1 | 6 | -20.1 | inactive |
| LTF | 0 | -3.9 | 1.7 | -9.4 | inactive |
| RNPEP | 0 | 10.2 | 12.5 | 7.8 | inactive |
| GNA15 | 0 | -3.5 | -3.6 | -3.3 | inactive |
| HERC4 | -1 | -12.8 | -26.5 | 0.8 | inactive |
| KLHL7 | 0 | 2.6 | 13.9 | -8.7 | inactive |
| LINC00313 | 0 | -6.8 | -8.7 | -4.9 | inactive |
| CTSE | 0 | 22.1 | 39.3 | 5 | inactive |
| CLIC2 | 1 | 16.9 | 21.6 | 12.3 | inactive |
| YBX1 | 0 | 3.1 | 6.8 | -0.5 | inactive |
| PCDHGC4 | 0 | 22 | -2 | 46 | inactive |
| LOC201475 | 0 | -6.5 | 3 | -16 | inactive |
| PCDH10 | 0 | 8 | 10.5 | 5.5 | inactive |
| SACS | 0 | -12.2 | -12.5 | -11.9 | inactive |
| LIPT2-AS1 | 0 | 4.7 | -6.7 | 16.1 | inactive |
| HPCAL4 | 0 | -1.9 | 1.6 | -5.5 | inactive |
| TBC1D10C | 1 | 10.4 | 11.4 | 9.4 | inactive |
| SUCLA2 | 0 | 7.1 | -2.5 | 16.7 | inactive |
| LEFTY1 | 0 | -42.5 | -37.3 | -47.7 | inactive |
| STX11 | 0 | -5.2 | -5.8 | -4.6 | inactive |
| SPTLC3 | 0 | 1 | 2.2 | -0.2 | inactive |
| EIF6 | 0 | -3.3 | 1.4 | -8.1 | inactive |
| PABPC4 | 0 | -7.9 | -7.7 | -8 | inactive |
| SMYD2 | 0 | 10.9 | 5.5 | 16.4 | inactive |
| GRIA2 | 0 | -6.5 | 6.5 | -19.6 | inactive |
| LOC199897 (retired record) | 2 | 18.6 | 20.7 | 16.6 | active |
| TOR3A | -1 | -9.6 | -16.1 | -3.2 | inactive |
| MAGEA6 | 0 | 4.1 | 10.9 | -2.6 | inactive |
| IL9R | 0 | 21.5 | 25.1 | 18 | inactive |
| ATP6V1G1 | 0 | 6.3 | 4.8 | 7.9 | inactive |
| FAM174C | 0 | 0.1 | -13.7 | 13.9 | inactive |
